Our source for the survivor count and T/C values is PubChem BioAssay AID328 (DTP/NCI, 2004).

The experiment relates to BDF1 mice, P388 leukemia ip, median survival T/C. The experiment is described as follows: NCI In Vivo Anticancer Drug Screen. Data for tumor model P388 Leukemia (intraperitoneal) in B6D2F1 (BDF1) mice. As to conditions: T/C endpoint: median survival time, higher T/C = longer survival. As to the method:
The antitumor activity of compounds was measured in mice bearing transplantable tumors. Survival or tumor size were measured and the results are expressed as the measurement made in the treated group (T) divided by the measurement made in the vehicle treated control group (C). The tumor model used in this assay is P388 Leukemia (intraperitoneal) in B6D2F1 (BDF1) mice

Setting [1] is: dose: 400.0 mg/kg/injection, schedule: Q04DX003 (ip), vehicle: saline with Tween-80.
Setting [2] is: dose: 100.0 mg/kg/injection, schedule: Q04DX003 (ip), vehicle: Klucel (hydroxypropylcellulose) (HPC).
Where [3] appears, read: dose: 50.0 mg/kg/injection, schedule: Q01DX009 (ip), vehicle: saline with Tween-80.
[4] abbreviates: dose: 75.0 mg/kg/injection, schedule: Q04DX003 (ip), vehicle: saline.
Where [5] appears, read: dose: 400.0 mg/kg/injection, schedule: Q01DX009 (ip), vehicle: saline.
The mark [6] stands for this setting: dose: 200.0 mg/kg/injection, schedule: Q04DX003 (ip), vehicle: saline with Tween-80.
Setting [7] is: dose: 100.0 mg/kg/injection, schedule: Q01DX009 (ip), vehicle: other.
[8] abbreviates: dose: 400.0 mg/kg/injection, schedule: Q01DX009 (ip), vehicle: other.

SMILES strings stand for the structures. The list is a part of this screen's results and no random one: it is rich in T/C values a quarter to a half above the control, in often repeated tests (any T/C) and in doses without a T/C. Further doses and runs are listed elsewhere. T/C: endpoint of the treated group in % of that of the vehicle group. Some entries give survivors of the animals treated and no T/C: the source files T/C as zero there, which appears to mark a toxic dose or a test without result, not a measured value. Some doses without a T/C left all or most animals alive at the check, yet need not have been tolerated: survival well below the control is almost never listed, so the zero probably covers shortened survival too. Survivors were counted at the toxicity check, usually on the fifth day, unless a day is given; later deaths do not show. Schedules are NCI's codes, read here as Q, the interval in days (D) or hours (H), X, the number of doses. Some entries were tested several times; their values stand side by side, smallest first. For survival time, this PubChem deposit counts one and a half times the control or more as active, and values a quarter to a half above the control carry no call in these data; other NCI protocols may use other cut-offs. Some T/C values are followed by the survivors on the day toxicity was checked, most often the fifth; where none is given, no animal had died by that day.

Consider `CC(=O)O[C@]1(C(C)=O)CC[C@H]2[C@@H]3C[C@H](Cl)C4=CC(=O)CC[C@]4(C)[C@H]3CC[C@@]21C`, for which, under setting [1], the survivor count was 6 of 6.

As for `c1coc(-c2ncnc3c2Cc2ccccc2-3)c1`, the survivor count is reported as 4 of 6 (dose: 225.0 mg/kg/injection, schedule: Q01DX009 (ip), vehicle: Klucel (hydroxypropylcellulose) (HPC)) and 0 of 6 (dose: 335.0 mg/kg/injection, schedule: Q01DX009 (ip), vehicle: Klucel (hydroxypropylcellulose) (HPC)).

As for `CCOS(C)(=O)=O`, the survivor count is given as 6 of 6 (dose: 200.0 mg/kg/injection, schedule: Q01DX009 (ip), vehicle: saline) and 2 of 6 (dose: 400.0 mg/kg/injection, schedule: Q04DX003 (ip), vehicle: saline).

Regarding `CN(Nc1c([N+](=O)[O-])cc([N+](=O)[O-])cc1[N+](=O)[O-])c1cccc2ccccc12`, the survivor count under setting [2] is listed as 6 of 6.

For the compound `Oc1cc(CN(CCCl)CCCl)c(O)cc1CN(CCCl)CCCl`, under “dose: 0.63 mg/kg/injection, schedule: Q01DX010 (ip), vehicle: saline”, the survivor count is reported as 3 of 6. Moreover, the T/C (dose: 5.0 mg/kg/injection, schedule: Q01DX010 (ip), vehicle: saline) is 131 % of control.

As for `O=C1C(F)=C(N2CC2)C(=O)C(N2CCOCC2)=C1N1CC1`, the T/C (dose: 0.75 mg/kg/injection, schedule: Q01DX009 (ip), vehicle: saline) was 125 % of control. Also, the survivor count (dose: 1.5 mg/kg/injection, schedule: Q01DX009 (ip), vehicle: saline) is 5 of 6.

For the compound `CC(=O)C(C(C)=O)c1ccccc1.CC(=O)C(C(C)=O)c1ccccc1.[Ni]`, the survivor count (dose: 25.0 mg/kg/injection, schedule: Q01DX009 (ip), vehicle: Klucel (hydroxypropylcellulose) (HPC)) is on record as 6 of 6.

Consider `O=C(N=Nc1c(O)[nH]c2c(Cl)cc(Cl)cc12)C(=O)Nc1cccc(C(F)(F)F)c1`, for which the survivor count under setting [3] is 6 of 6.

Turning to `CCN(CC)C(=O)c1ccc([N+](=O)[O-])cc1`, under setting [2], the survivor count was 5 of 6.

Consider `COC(/C=C\C(OC)OC)OC`, for which the T/C (dose: 6.25 mg/kg/injection, schedule: Q01DX009 (ip), vehicle: saline) was 125 % of control. Further, the survivor count (dose: 35.0 mg/kg/injection, schedule: Q01DX009 (ip), vehicle: saline) is listed as 1 of 6; the survivor count (dose: 55.0 mg/kg/injection, schedule: Q01DX009 (ip), vehicle: saline) is reported as 0 of 6; the survivor count under setting [4] is 4 of 6; the survivor count (dose: 80.0 mg/kg/injection, schedule: Q01DX009 (ip), vehicle: saline) was 0 of 6.

Take `CC(C)(C)C1Sc2nc3ccccc3n2C1=O` (stereo not given): the survivor count (dose: 50.0 mg/kg/injection, schedule: Q01DX009 (ip), vehicle: Klucel (hydroxypropylcellulose) (HPC)) is 3 of 6.

On to `O=[N+]([O-])c1ccc(N/N=C/CC(O)CO)c([N+](=O)[O-])c1` (stereo not given), for which the T/C under setting [5] was 140 % of control.

As to `COC(=O)N1c2ccccc2C=CC1C#N` (stereo not given), the survivor count is 6 of 6 under setting [3], 6 of 6 under setting [6] and 3 of 6 under setting [1].

`COc1cc(C=O)c(C=O)cc1OC`: the survivor count is 1 of 6 under setting [6] and 0 of 6 under setting [1].

In the case of `COc1cc2cc(c1Cl)N(C)C(=O)/C=C/C1(C)OC1C(C)C1CC(O)(NC(=O)O1)C(OC)C=C/C=C(\C)C2` (stereo not given), the survivor count (dose: 6.3 micrograms/kg/injection, schedule: Q01DX009 (ip), vehicle: saline + alcohol) was 6 of 6; the survivor count (dose: 12.5 micrograms/kg/injection, schedule: Q01DX009 (ip), vehicle: saline + alcohol) is 6 of 6; the survivor count (dose: 25.0 micrograms/kg/injection, schedule: Q01DX009 (ip), vehicle: saline + alcohol) was 6 of 6; the survivor count (dose: 50.0 micrograms/kg/injection, schedule: Q01DX009 (ip), vehicle: saline + alcohol) is reported as 6 of 6.

Consider `Cc1ccc(C)c(CCO)c1`, for which the T/C under setting [7] was 130 % of control. Moreover, the survivor count was 0 of 6 and 4 of 6 under setting [8]; 6 of 6 under setting [1].

On to `COc1cc(/C=C/C(=O)c2ccc3c(c2)OCO3)ccc1OCc1ccccc1`, for which the survivor count by setting is: (dose: 100.0 mg/kg/injection, schedule: Q01DX009 (ip), vehicle: water) 5 of 6; (dose: 400.0 mg/kg/injection, schedule: Q01DX009 (ip), vehicle: water) 4 of 6.

As to `CC(=O)CC(C)=O.CC(=O)CC(C)=O.O=N[O-].O=N[O-].[Co]`, where the note is “dose: 100.0 mg/kg/injection, schedule: Q04DX002 (ip), vehicle: saline with Tween-80”, the T/C is 126 and 127 % of control [5 of 6 alive]. The survivor count was 0 of 6 and 2 of 6 (dose: 200.0 mg/kg/injection, schedule: Q04DX002 (ip), vehicle: saline with Tween-80); 0 of 6 (dose: 400.0 mg/kg/injection, schedule: Q04DX002 (ip), vehicle: saline with Tween-80).

On to `Cc1nc(C(N)=O)c(=O)[nH]c1C`, for which the survivor count reads like this: (dose: 33.0 mg/kg/injection, schedule: Q04DX003 (ip), vehicle: saline) 6 of 6; under setting [4], 6 of 6. For the same compound, the T/C (dose: 50.0 mg/kg/injection, schedule: Q04DX003 (ip), vehicle: saline sonified) is 141 % of control.

Consider `CC(C#N)(Nc1ccccc1)c1ccco1` (stereo not given), for which the survivor count (dose: 100.0 mg/kg/injection, schedule: Q04DX003 (ip), vehicle: other) is 6 of 6; the survivor count (dose: 200.0 mg/kg/injection, schedule: Q04DX003 (ip), vehicle: other) is listed as 2 of 6; the survivor count (dose: 400.0 mg/kg/injection, schedule: Q04DX003 (ip), vehicle: other) is 0 of 6.

With `C[C@H](CCC(=O)O)[C@H]1CC[C@H]2[C@@H]3[C@H](O)C[C@@H]4C[C@H](O)CC[C@]4(C)[C@H]3C[C@H](O)[C@]12C` (tested in a mixture with another compound), the T/C runs as follows: under setting [7], 131 % of control; (dose: 198.0 mg/kg/injection, schedule: Q04DX003 (ip), vehicle: saline sonified) 144 % of control. The survivor count is, setting by setting: (dose: 300.0 mg/kg/injection, schedule: Q01DX009 (ip), vehicle: saline) 2 of 6; under setting [8], 3 of 6; under setting [5], 2 of 6.

As for `CNC(=O)OCc1c(COC(=O)NC)c(-c2ccc(Cl)cc2Cl)n2c1CCC2`, the T/C (dose: 12.5 mg/kg/injection, schedule: Q01DX009 (ip), vehicle: other) is 127 % of control; the T/C (dose: 25.0 mg/kg/injection, schedule: Q01DX009 (ip), vehicle: other) is 142 % of control; the T/C (dose: 50.0 mg/kg/injection, schedule: Q01DX009 (ip), vehicle: other) was 145 % of control. Moreover, where the note is “dose: 200.0 mg/kg/injection, schedule: Q01DX009 (ip), vehicle: other”, the survivor count was 0 of 6.

`CNC(=O)NC1C(O)COC(OC)C1O` (stereo not given): the T/C (dose: 75.0 mg/kg/injection, schedule: Q01DX001 (ip), vehicle: saline) was 145 % of control.

Consider `CC1(C)N=C(N)N=C(N)N1c1cccc(-c2ccccc2)c1`, for which the survivor count is, setting by setting: (dose: 18.75 mg/kg/injection, schedule: Q01DX009 (ip), vehicle: Klucel (hydroxypropylcellulose) (HPC)) 1 of 6; (dose: 37.5 mg/kg/injection, schedule: Q01DX009 (ip), vehicle: Klucel (hydroxypropylcellulose) (HPC)) 0 of 6; (dose: 75.0 mg/kg/injection, schedule: Q01DX009 (ip), vehicle: Klucel (hydroxypropylcellulose) (HPC)) 0 of 6; (dose: 150.0 mg/kg/injection, schedule: Q01DX009 (ip), vehicle: Klucel (hydroxypropylcellulose) (HPC)) 0 of 6.

In the case of `O=S1(=O)C=CCC2C3CCC(C3)C21` (stereo not given), the survivor count (dose: 400.0 mg/kg/injection, schedule: Q01DX001 (ip), vehicle: saline with Tween-80) is listed as 0 of 6.

Consider `N#C/C(=C1C=C(Br)/C(=N\O)C=C\1Cl)c1ccc(Cl)cc1`, for which the T/C (dose: 400.0 mg/kg/injection, schedule: Q01DX009 (ip), vehicle: Klucel (hydroxypropylcellulose) (HPC)) was 133 % of control.

As for `CCOC(=O)CC/C(=C/c1ccccc1)[N+](=O)[O-]`, under setting [6], the survivor count is on record as 5 of 6.
